According to PubChem BioAssay AID2685 (National Center for Advancing Translational Sciences (NCATS), 2010):
Some of the results follow. Further columns of the screen follow, without active or inactive calls. The list favours compounds with an active or inconclusive main result. Potencies come from curve fits of mixed quality, noted in brackets.

Test: qHTS Assay for Lipid Storage Modulators in Drosophila S3 Cells;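 for cell number change: cells counted by Cell Tracker Red CMTPX staining in the red channel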
Details: BODIPY lipid droplet fluorescence, 18-24 h; for cell number change: measured here: cell count max response, cells fed with added oleic acid
Method in brief: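 Laser-scanning cytometry quantifies lipid droplet accumulation (500–530 nm total intensity; droplet/cell object ratio) in oleic acid-fed (400 uM added) Drosophila S3 cells treated with a concentration series. 20 uM Triacsin C defined 100% inhibition.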

[1] = measured here: cell number channel AC50, cells fed with added oleic acid
[2] = measured here: lipid fluorescence (Fed channel) AC50, cells fed with added oleic acid

| Compound | cell number change | AC50 [1] | AC50 [2] |
| --- | --- | --- | --- |
| COC(=O)c1cc(NC(=O)CSc2nnc(N)s2)ccc1Cl | 112% | 20.6 µM [rising, partial curve] | – |
| COc1ccc2c(CC(=O)Nc3c(C)n(C)n(-c4ccccc4)c3=O)coc2c1 | 81.7% | 29.1 µM [rising, single point] | – |
| O=c1sc2ccccc2c(N2CCCCC2)c1[N+](=O)[O-] | -41.6% | – | – |
| CCOC(=O)NC(=O)CSc1nc(C)cc(C(F)(F)F)c1C#N | 25.1% | 1.46 µM [rising, full curve, poor fit] | 0.517 µM [rising, full curve] |
| CC(C)(C)c1cc(OC(=O)c2ccccc2F)ccc1O | -48.4% | 11.6 µM [falling, partial curve] | 8.2 µM [falling, partial curve] |
| O=[N+]([O-])c1cc(/C=N\O)ccc1Oc1ccc(F)cc1 | 7.9% | – | 0.92 µM [rising, full curve, poor fit] |
| O=C(O)Cn1cc(/C=C/[N+](=O)[O-])c2ccccc21 | 0.601% | – | – |
| COC(=O)Nc1nn(Cc2ccccc2F)cc1Br | 14.9% | – | 32.6 µM [rising, single point] |
| O=C(NCCOC(=O)c1cccs1)c1cccnc1 | -15.7% | – | 5.8 µM [falling, single point] |
| CC(=O)Nc1ccc(S(=O)(=O)NCc2ccncc2)cc1 | -35.3% | 11.6 µM [falling, single point] | 18.4 µM [falling, partial curve] |
| CC(=O)Nc1sc(N/N=C\c2ccccc2)nc1-c1cccs1 | 20.2% | – | – |
| O=C(Nc1ccc(F)c(F)c1)C1CCN(S(=O)(=O)c2cccc3nonc23)CC1 | 30.6% | 6.51 µM [rising, single point] | 0.13 µM [falling, full curve, poor fit] |
| O=C(Cn1c(CN2CCCCC2)nc2ccccc2c1=O)Nc1ccccc1 | 22.7% | – | 2.91 µM [rising, single point] |
| N#CCC(=O)NCCCOC(=O)Nc1ccc(Cl)c(Cl)c1 | -10.6% | – | – |
| CN(C(=S)Nc1ccc(Oc2ccccc2)cc1)C1CCCCC1 | -0.978% | – | 29.1 µM [rising, single point] |
| COc1ccc2c(c1)OC[C@H]1[C@H]2N2C(=O)CN(Cc3ccc(C)cc3)C(=O)[C@@]2(C)[C@H]1c1ccccc1 | 8.15% | – | 18.4 µM [falling, single point] |
| COc1ccc(-c2nnc(SC(C)C(=O)Nc3nccs3)n2Cc2ccccc2)cc1OC (stereo unspecified) | 0.849% | – | 0.731 µM [falling, full curve] |
| O=C(Nc1ccc(Cl)cc1)c1cccc(OC(=S)N2CCOCC2)c1 | -10.4% | – | 29.1 µM [falling, single point] |
| O=C(CCCN1CCC(O)(c2cccc(C(F)(F)F)c2)CC1)c1ccc(F)cc1 | 39% | 29.1 µM [rising, single point] | 29.1 µM [rising, single point] |
| CC(C)c1cc2c(c(O)c1O)[C@@]13CCCC(C)(C)C1CC2OC3=O (stereo partly specified) | -39.5% | 23.1 µM [falling, single point] | 29.1 µM [falling, single point] |

Three entries from above in another layout.
Compound	cell number change	AC50 [1]	AC50 [2]
COc1ccc(-c2nnc(SC(C)C(=O)Nc3nccs3)n2Cc2ccccc2)cc1OC (stereo unspecified)	0.849%	–	0.731 µM [falling, full curve]
O=C(Nc1ccc(Cl)cc1)c1cccc(OC(=S)N2CCOCC2)c1	-10.4%	–	29.1 µM [falling, single point]
O=C(CCCN1CCC(O)(c2cccc(C(F)(F)F)c2)CC1)c1ccc(F)cc1	39%	29.1 µM [rising, single point]	29.1 µM [rising, single point]

The results go on.

| Compound | cell number change | AC50 [1] | AC50 [2] |
| --- | --- | --- | --- |
| C=CCn1c(CCNC(=O)c2ccccc2F)nnc1SCc1nc2ccccc2c(=O)[nH]1 | 21.2% | – | 0.517 µM [rising, single point] |
| Cc1cc(C)n2nc(C(=O)OCCOc3ccc(F)cc3)nc2n1 | 6.5% | – | 29.1 µM [rising, single point] |
| COc1ccccc1NS(=O)(=O)c1cccc(C(=O)N/N=C(\C)c2ccncc2)c1 | 25% | – | – |
| COc1ccc(S(=O)(=O)Nc2ccc(F)cc2)cc1N(C)S(=O)(=O)c1ccc(Cl)cc1 | -7.03% | – | – |
| CC1CCCC(NC(=O)CN(C)S(=O)(=O)c2cccc3cccnc23)C1C (stereo unspecified) | 34.4% | 18.4 µM [rising, single point] | – |
| Nn1c(Cc2ccccc2F)nnc1SCC(=O)Nc1cccc(S(=O)(=O)NC2=NCCCCC2)c1 | -20.7% | 1.46 µM [falling, partial curve, poor fit] | 3.66 µM [falling, single point] |
| Cc1ccc(N=Nc2cc(C)ccc2O)c(C)c1 | – | – | 29.1 µM [falling, single point] |
| CCC(=O)Nc1ccc(S(=O)(=O)c2ccc(NC(=O)CC)cc2)cc1 | – | – | 11.6 µM [falling, partial curve] |
| O=C(c1ccccc1)c1ccc(Cn2cc(CCCO)nn2)cc1 | -5.5% | – | 6.51 µM [rising, single point] |
| C=CCn1c(C)cc(C(=O)COC(=O)C2CC(=O)N(Cc3ccccc3)C2)c1C (stereo unspecified) | 2.6% | – | – |
| Cc1cccc2c(=O)oc(-c3ccccc3Cl)nc12 | -11.3% | – | 16.4 µM [rising, single point] |
| [O-][n+]1onc2c1CCc1[nH]c(-c3ccccc3)nc1-2 | -25% | – | 0.411 µM [falling, partial curve, poor fit] |
| CN(CC(=O)Nc1ccc(F)c(F)c1F)C(=O)c1ccc2c(c1)NC(=O)CS2 | -32.8% | 0.517 µM [falling, full curve] | – |
| COc1ccccc1N1CCN(C(CNS(=O)(=O)c2cccs2)c2cccnc2)CC1 (stereo unspecified) | 130% | 3.26 µM [rising, partial curve] | 2.06 µM [rising, partial curve] |
| O=C(O)c1ccc(NC(=O)c2ccccc2NC(=O)c2cccc(F)c2)cc1 | 4.4% | – | – |
| Cc1cc(C)n(-c2nc(-c3ccccc3)cs2)n1 | 20.5% | 2.91 µM [rising, single point] | 9.2 µM [rising, partial curve] |
| CCc1cc(C(=O)N2CCCC(C(=O)c3cccc4ccccc34)C2)n(C)n1 (stereo unspecified) | -3.27% | – | 29.1 µM [falling, single point] |
| Cc1ccc(NC(=O)CSCC(=O)Nc2ccccc2N2CCCC2)cc1 | 10.7% | – | 1.84 µM [rising, partial curve] |
| O=C(NCCSc1ccccc1)c1ccccc1Cl | – | 6.51 µM [rising, partial curve, poor fit] | – |
